Results as given in article PMC11062913.

Experiments:
[1] = target: Integrator subunit INTS7 (human) (UniProt Q9NVH2); assay: condition: only free Integrator–PP2A–SOSS complex without the PEC (closed conformation); cryo-EM structure; free Integrator–PP2A complex in the closed conformation, from the free Integrator–PP2A–SOSS sample without the PEC; glycerol-gradient peak cross-linked with 0.2% glutaraldehyde; 3.1 Å; both purified
[2] = target: Integrator subunit INTS7 (human) (UniProt Q9NVH2); assay: cryo-EM structure; post-termination complex (Integrator–PP2A–SOSS–CTD), a class of particles from the PEC–Integrator–PP2A–SOSS sample; glycerol-gradient peak cross-linked with 0.2% glutaraldehyde; 3.7 Å; both purified
PP2A-C (human) [3] = target: PP2A-C (human) (UniProt P67775); assay: cryo-EM structure; free Integrator–PP2A complex in the closed conformation, from the free Integrator–PP2A–SOSS sample without the PEC; glycerol-gradient peak cross-linked with 0.2% glutaraldehyde; 3.1 Å; both purified
PP2A-C (human) [4] = target: PP2A-C (human) (UniProt P67775); assay: cryo-EM structure; pre-termination complex (PEC–Nuc–Integrator–PP2A): preformed Integrator–PP2A with INTS11(E203Q) and NELF added to the stalled Pol II–DSIF–Nuc complex; glycerol-gradient peak cross-linked with 0.2% glutaraldehyde; overall resolution 4.1 Å; both purified

For “Integrator subunit INTS3 (from UniProt Q68E01)”, the binding [1] was “no binding” and the binding [2] was “binds”.
With “Integrator subunit INTS6 (from UniProt Q9UL03 1-887)” the binding (PP2A-C (human) [3]) was “binds” and the binding (PP2A-C (human) [4]) was “binds”.

These are yes or no findings as the source states them, for the method shown. For some of these results: A result given as binding can be weak or reduced; the word gives no strength.
